The nature of one data set: Comparative reactivity of carbonyl moieties with n-butylamine. The conditions noted are these: n-butylamine in MeOH, 24 hours at 37° C.
`CC(C)Oc1ccc(C=O)cc1` [Compound 8a, 4-isopropoxybenzaldehyde] had a conversion to imine of over 90%.

Staying with this data set, now noted: n-butylamine in MeOH, 24 hours at 37° C., then NaBH3CN.
Consider `CC(C)Oc1ccc(C=O)cc1` [Compound 8a, 4-isopropoxybenzaldehyde], for which the Imine/SM ratio is listed as 10/1. As to `CC(C)Oc1ccc(C(=O)CF)cc1` [Compound 8c, 2-fluoro-1-(4-isopropoxyphenyl)ethan-1-one], the Imine/SM ratio is 1/1. As for `CC(C)Oc1ccc(C(=O)CN2CCNCC2)cc1` [Compound 8h, 1-(4-isopropoxyphenyl)-2-(piperazin-1-yl)ethan-1-one], the Imine/SM ratio was 1/7. `COc1ccc(CN2CCN(CC(=O)c3ccc(OC(C)C)cc3)CC2)cc1` [Compound 8g, 1-(4-isopropoxyphenyl)-2-(4-(4-methoxybenzyl)piperazin-1-yl)ethan-1-one]: the Imine/SM ratio is listed as 1/4. For `CC(=O)c1ccc(OC(C)C)cc1` [Compound 8b, 1-(4-isopropoxyphenyl)ethan-1-one], the Imine/SM ratio is 3/1.
